Experiment [1] concerns Phosphorylation of ERK1/2 in A549 cells. As to the kind of experiment: Phospho-ERK1/2 MSD assay in A549 cells. The format is cell-based. The settings on record: read-out: p-ERK IC50 (2 h, A549; μM), 2 h compound treatment, EGF stimulated. As for the experimental part:
Phospho-ERK1/2 MSD Assay:
MIA PaCa-2 (ATCC® CRL-1420™) and A549 (ATCC® CCL-185™) cells were cultured in RPMI 1640 Medium (ThermoFisher Scientific 11875093) containing 10% fetal bovine serum (ThermoFisher Scientific 16000044) and 1× penicillin-streptomycin-glutamine (ThermoFisher Scientific 10378016). Sixteen hours prior to compound treatment, MIA PaCa-2 or A549 cells were seeded in 96-well cell culture plates at a density of 25,000 cells/well and incubated at 37° C., 5% CO2. A compound dose-response titration was diluted in growth media, added to appropriate wells of a cell culture plate, and then incubated at 37° C., 5% CO2 for 2 or 4 hours (see Table 15). Following compound treatment, cells were stimulated with 10 ng/mL EGF (Roche 11376454001) for 10 min, washed with ice-cold Dulbecco's phosphate-buffered saline, no Ca2+ or Mg2+ (ThermoFisher Scientific 14190144), and then lysed in RIPA buffer (50 mM Tris-HCl pH 7.5, 1% Igepal, 0.5% sodium deoxycholate, 150 mM NaCl. and 0.5% sodium dodecyl sulfate) containing protease inhibitors (Roche 4693132001) and phosphatase inhibitors (Roche 4906837001). […] Assay plates were read on a Meso Scale Discovery Sector Imager 6000, and data were analyzed using a 4-parameter logistic model to calculate IC50 values.

Sequences of proteins named here, by UniProt entry; tags and fusion partners are left off. A line that says so, or that is headed by a name, gives the form on record, which may keep a tag or linker. Residues count along the entry.
UniProt P01116, 1-164 with tags or gaps C118A/G12C limits assumed: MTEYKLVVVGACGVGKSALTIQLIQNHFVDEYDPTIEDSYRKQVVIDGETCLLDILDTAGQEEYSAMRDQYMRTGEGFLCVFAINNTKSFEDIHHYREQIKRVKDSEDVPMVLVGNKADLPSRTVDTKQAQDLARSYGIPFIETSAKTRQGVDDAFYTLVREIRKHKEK

Experiment [2] concerns Phosphorylation of ERK1/2 in MIA PaCa-2 cells. As to the kind of experiment: Phospho-ERK1/2 MSD assay in MIA PaCa-2 cells. The format is cell-based. The settings on record: read-out: p-ERK IC50 (2 h, MiaPaCa-2; μM), 2 h compound treatment, EGF stimulated.
The target of experiment [3] is GDP-bound KRAS protein (aa 1-169), containing both G12C and C118A amino acid substitutions (Homo sapiens (Human), UniProt P01116, C118A/G12C). As to the kind of experiment: Coupled nucleotide exchange assay (SOS-mediated nucleotide exchange, AlphaScreen). The settings on record: read-out: Coupled exchange IC50 (5 min; μM); 5 min compound pre-incubation. The experiment is classed as biochemical. A general note: Alpha assays give light when donor and acceptor beads are brought close together.

The match of structure and compound is tentative.

As for `C#CCNc1cccc(F)c1-c1nc2c(cc1F)c(N1C[C@@H](C)N(C(=O)C=C)C[C@@H]1C)nc(=O)n2-c1c(C)ccnc1C(C)C`, the results for the IC50 in experiment [1], in experiment [2] and in experiment [3] were above 7.5 µM, 0.054 µM and 0.067 µM, respectively.

What is called IC50 is the concentration at which inhibition is half-maximal.

For the origin of these results see US11285156B2, “Substituted piperazines as KRAS G12C inhibitors” (Amgen Inc., priority 2018, dated 2022).
